The targets with a hit were mostly taken out for another list; the other results follow. The data scatter; read single values as rough. The entries are a selection whose mix differs from that of the whole data set.
compound: COC(=O)/C=C/c1ccccc1 [methyl cinnamate]; experiment: log2 ratio of iodoacetamide-alkyne labeling of the cysteine site, DMSO over compound (competition); higher = stronger covalent engagement of the cysteine by the compound, active = 1 or more; details: 500 µM; treatment time 1 h; system: HEK293T cell lysate
Summary of the method: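 The log2 competition ratio per cysteine is defined as mean reporter intensity in control channels over mean reporter intensity in compound channels. Lysate from HEK293T cells (2 mg/mL) received electrophile (500 µM) or vehicle for 1 h at ambient temperature, followed by iodoacetamide alkyne for 1 h. Samples were clicked to sCIP-TMT reagents, pooled, trypsin-digested overnight at 37 °C, streptavidin-enriched, acid-eluted and run on Orbitrap Eclipse LC-MS/MS with FAIMS, with quantification in FragPipe. Three replicates with duplicate channels were used, and any cysteine quantified in only one replicate was excluded.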

The chains behind the UniProt entries cited, without tags or fusion partners. Where a name states a change or a piece, a line headed by the entry shows the natural chain unless it says otherwise.
UniProt P53634: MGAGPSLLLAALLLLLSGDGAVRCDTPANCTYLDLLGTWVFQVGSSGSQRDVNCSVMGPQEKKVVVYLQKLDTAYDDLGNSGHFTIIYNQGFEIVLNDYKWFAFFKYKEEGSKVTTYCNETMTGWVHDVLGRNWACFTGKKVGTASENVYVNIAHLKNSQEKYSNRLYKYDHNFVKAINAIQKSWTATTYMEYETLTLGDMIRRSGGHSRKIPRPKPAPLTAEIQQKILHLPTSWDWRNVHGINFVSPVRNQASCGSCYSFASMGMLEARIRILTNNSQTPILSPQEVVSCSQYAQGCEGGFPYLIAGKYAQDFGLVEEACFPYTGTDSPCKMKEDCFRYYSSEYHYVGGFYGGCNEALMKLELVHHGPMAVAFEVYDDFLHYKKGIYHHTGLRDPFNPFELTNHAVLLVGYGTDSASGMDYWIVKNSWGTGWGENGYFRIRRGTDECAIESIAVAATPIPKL
UniProt P61088: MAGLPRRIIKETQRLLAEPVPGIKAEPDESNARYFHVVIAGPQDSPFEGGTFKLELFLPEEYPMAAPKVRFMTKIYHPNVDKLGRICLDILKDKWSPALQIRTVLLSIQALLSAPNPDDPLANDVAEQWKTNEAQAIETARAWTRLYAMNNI
UniProt P52732: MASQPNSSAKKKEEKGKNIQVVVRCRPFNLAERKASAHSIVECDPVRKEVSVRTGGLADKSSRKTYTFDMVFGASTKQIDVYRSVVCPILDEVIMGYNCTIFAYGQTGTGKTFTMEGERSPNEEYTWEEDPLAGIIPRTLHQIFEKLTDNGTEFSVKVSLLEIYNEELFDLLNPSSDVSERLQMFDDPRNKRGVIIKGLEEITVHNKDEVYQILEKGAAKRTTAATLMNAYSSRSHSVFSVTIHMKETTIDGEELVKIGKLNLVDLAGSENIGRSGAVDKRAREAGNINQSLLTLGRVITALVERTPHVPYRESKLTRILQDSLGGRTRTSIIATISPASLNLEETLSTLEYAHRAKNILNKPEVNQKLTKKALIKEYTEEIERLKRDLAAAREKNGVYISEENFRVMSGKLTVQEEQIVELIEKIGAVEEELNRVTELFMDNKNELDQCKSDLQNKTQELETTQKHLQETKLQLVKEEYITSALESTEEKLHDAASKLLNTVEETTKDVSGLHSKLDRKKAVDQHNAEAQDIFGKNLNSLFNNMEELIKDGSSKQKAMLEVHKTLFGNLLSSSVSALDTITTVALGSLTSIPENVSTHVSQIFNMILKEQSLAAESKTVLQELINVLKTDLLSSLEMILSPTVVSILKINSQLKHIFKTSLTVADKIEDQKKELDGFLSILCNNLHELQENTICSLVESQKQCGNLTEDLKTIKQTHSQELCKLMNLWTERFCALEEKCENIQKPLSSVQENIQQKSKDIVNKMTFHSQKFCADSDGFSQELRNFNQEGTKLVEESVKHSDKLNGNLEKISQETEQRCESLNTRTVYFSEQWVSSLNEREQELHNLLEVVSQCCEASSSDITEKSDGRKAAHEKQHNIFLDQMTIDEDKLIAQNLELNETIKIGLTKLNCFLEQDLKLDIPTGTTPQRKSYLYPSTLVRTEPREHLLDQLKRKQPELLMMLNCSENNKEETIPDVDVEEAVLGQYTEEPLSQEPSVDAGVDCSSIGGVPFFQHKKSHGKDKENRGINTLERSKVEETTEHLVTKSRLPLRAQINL
UniProt P60981: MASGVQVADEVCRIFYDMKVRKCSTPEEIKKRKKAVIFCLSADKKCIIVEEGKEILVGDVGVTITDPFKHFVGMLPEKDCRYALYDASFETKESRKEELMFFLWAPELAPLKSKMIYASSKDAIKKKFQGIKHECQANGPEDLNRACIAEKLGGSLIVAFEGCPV
UniProt P53597: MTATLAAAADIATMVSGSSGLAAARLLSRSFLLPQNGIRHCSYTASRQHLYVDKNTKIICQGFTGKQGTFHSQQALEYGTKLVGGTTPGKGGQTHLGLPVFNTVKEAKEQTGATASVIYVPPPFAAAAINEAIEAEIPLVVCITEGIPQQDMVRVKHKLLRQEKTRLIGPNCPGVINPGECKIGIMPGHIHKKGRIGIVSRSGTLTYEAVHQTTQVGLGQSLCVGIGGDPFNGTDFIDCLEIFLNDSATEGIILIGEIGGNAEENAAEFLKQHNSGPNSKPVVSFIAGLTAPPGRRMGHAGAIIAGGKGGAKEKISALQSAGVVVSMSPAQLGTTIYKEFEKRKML
UniProt P55263: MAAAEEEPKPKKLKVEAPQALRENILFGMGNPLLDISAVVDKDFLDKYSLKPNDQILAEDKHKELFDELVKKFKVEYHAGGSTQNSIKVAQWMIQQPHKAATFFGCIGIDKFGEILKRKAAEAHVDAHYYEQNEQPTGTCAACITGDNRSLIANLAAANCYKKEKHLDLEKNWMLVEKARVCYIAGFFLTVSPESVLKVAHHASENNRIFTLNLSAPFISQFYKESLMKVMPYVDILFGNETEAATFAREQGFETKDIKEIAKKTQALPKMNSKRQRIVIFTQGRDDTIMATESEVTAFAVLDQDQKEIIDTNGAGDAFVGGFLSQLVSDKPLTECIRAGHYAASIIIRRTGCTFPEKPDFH
UniProt P52888, whole entry, looked up: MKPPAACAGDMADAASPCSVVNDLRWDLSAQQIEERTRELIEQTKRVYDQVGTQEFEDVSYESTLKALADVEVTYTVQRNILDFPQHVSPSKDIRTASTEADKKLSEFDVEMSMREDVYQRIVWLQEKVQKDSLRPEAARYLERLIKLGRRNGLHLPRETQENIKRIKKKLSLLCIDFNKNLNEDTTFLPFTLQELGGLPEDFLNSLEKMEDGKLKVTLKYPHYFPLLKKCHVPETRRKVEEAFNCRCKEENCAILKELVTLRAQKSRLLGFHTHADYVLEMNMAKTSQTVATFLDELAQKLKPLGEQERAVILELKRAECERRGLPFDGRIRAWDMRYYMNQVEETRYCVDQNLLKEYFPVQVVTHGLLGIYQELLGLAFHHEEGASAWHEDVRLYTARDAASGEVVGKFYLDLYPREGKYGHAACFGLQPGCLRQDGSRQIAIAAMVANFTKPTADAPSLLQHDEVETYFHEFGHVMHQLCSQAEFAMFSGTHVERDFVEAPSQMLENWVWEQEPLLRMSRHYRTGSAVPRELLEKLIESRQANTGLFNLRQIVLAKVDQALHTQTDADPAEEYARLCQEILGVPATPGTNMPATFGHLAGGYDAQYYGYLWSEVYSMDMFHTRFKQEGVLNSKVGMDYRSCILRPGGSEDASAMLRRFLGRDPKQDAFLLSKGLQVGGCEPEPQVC
UniProt P53609, whole entry, looked up: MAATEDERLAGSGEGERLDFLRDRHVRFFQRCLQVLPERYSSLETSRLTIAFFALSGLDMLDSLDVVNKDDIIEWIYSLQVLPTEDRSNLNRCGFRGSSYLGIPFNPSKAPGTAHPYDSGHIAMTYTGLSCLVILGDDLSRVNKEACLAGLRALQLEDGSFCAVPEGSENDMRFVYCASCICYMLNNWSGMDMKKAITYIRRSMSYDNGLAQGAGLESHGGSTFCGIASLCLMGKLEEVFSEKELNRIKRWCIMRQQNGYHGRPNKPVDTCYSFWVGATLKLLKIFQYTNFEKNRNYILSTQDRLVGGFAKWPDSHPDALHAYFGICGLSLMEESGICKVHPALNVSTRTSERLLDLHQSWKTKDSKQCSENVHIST
UniProt P54105: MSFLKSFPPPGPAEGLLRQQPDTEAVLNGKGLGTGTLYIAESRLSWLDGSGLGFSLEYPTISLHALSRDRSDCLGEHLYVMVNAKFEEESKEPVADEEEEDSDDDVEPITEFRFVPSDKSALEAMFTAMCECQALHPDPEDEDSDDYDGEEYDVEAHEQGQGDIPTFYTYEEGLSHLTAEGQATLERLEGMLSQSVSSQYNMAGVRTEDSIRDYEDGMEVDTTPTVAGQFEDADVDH
UniProt P56589: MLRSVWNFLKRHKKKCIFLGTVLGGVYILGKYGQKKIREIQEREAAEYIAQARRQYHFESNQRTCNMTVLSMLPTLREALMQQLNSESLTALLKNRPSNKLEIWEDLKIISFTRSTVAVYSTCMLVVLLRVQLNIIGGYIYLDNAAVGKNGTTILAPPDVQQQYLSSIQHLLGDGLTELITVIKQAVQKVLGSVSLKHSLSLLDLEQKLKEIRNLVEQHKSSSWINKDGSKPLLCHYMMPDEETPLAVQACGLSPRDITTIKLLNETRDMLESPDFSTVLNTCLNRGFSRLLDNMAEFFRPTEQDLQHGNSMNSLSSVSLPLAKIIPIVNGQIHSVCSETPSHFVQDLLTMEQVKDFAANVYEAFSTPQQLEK
UniProt P52209: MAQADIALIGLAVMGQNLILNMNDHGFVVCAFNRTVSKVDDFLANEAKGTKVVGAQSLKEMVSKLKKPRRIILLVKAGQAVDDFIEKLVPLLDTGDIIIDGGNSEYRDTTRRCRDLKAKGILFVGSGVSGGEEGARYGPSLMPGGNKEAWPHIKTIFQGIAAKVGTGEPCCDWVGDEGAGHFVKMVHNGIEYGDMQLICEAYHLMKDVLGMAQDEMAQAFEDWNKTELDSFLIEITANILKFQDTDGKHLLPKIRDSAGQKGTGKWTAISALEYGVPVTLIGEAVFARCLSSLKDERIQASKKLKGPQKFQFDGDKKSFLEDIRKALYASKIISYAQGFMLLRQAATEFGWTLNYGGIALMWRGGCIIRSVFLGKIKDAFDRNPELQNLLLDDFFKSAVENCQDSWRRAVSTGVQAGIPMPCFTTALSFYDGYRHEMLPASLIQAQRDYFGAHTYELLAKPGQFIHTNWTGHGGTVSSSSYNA
UniProt P60891: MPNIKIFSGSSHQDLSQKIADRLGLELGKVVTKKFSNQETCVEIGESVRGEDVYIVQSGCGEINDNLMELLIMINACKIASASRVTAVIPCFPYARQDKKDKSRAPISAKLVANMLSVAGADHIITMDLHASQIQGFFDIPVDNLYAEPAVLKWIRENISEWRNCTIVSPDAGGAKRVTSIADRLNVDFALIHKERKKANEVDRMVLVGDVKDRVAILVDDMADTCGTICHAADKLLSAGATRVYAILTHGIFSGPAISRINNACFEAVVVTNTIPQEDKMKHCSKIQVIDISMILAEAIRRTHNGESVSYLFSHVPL
UniProt P54886: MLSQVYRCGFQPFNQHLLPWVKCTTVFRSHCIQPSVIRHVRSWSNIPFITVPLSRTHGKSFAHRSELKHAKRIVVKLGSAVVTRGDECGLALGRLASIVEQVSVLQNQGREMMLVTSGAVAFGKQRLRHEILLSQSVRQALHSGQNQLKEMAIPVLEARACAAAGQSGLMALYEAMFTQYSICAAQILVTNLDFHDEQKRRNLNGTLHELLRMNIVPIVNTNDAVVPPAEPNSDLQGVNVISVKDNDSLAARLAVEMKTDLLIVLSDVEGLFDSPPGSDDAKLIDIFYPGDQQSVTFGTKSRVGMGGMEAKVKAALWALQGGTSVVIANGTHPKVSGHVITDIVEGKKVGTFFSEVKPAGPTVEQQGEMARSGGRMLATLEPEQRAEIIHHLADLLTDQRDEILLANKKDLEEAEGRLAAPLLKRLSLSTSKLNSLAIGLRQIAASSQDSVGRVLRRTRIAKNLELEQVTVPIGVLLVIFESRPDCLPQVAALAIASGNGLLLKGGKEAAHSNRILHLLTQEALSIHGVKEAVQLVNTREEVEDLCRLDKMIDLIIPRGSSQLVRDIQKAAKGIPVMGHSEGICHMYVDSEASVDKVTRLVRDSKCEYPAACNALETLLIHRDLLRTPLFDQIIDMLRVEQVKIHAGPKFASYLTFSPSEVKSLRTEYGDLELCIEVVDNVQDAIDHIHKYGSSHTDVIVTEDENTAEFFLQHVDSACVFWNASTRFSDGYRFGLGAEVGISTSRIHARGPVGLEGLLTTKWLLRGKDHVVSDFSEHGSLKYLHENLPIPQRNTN
UniProt P52272: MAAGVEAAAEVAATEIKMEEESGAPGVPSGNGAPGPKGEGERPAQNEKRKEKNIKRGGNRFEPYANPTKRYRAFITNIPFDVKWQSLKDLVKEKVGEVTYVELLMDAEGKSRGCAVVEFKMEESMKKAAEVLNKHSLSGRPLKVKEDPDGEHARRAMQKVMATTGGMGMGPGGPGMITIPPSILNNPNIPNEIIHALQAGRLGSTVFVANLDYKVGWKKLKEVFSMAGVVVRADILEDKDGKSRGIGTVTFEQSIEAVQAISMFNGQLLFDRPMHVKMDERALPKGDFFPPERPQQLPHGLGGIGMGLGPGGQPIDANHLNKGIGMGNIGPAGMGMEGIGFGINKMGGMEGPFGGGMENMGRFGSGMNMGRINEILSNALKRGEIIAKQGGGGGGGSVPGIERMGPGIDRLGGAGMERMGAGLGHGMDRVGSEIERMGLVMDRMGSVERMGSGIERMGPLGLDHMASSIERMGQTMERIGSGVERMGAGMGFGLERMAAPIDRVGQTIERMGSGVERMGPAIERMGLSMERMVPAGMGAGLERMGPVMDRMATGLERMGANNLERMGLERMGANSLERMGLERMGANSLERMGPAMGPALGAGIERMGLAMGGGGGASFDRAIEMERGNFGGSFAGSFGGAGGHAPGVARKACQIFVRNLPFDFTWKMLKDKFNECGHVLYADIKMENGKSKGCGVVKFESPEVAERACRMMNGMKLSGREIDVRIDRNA

log2 ratio of iodoacetamide-alkyne labeling, inactive:
HNRNPH2 C34 (UniProt P55795) 0.189, UniProt P60709_C272 -0.114, CTSC C258 (UniProt P53634) 0.0939, UniProt P61927_C37 0.103, UniProt P61088_C87 -0.0475, KIF11 C450 (UniProt P52732) 0.178, DSTN C163 (UniProt P60981) 0.0666, SUCLG1 C172 (UniProt P53597) 0.3, UniProt P62241_C100 -0.0435, ADK C353 (UniProt P55263) 0.121, UniProt P61978_C145 0.141, SUCLG1 C60 (UniProt P53597) 0.191, SEC13 C245 (UniProt P55735) 0.116, THOP1 C682 (UniProt P52888) 0.378, ARHGDIA C79 (UniProt P52565) -0.506, RPS3A C139 (UniProt P61247) 0.194, PGGT1B C369 (UniProt P53609) 0.293, UniProt P61077_C85 0.217, TPI1 C79 (UniProt P60174) 0.112, BLM C698 (UniProt P54132) 0.139, PSMD4 C9 (UniProt P55036) 0.0318, HNRNPH2 C290 (UniProt P55795) -0.0697, CLNS1A C73 (UniProt P54105) 0.25, PEX3 C65 (UniProt P56589) 0.36, YARS C250 (UniProt P54577) 0.402, SRP54 C136 (UniProt P61011) 0.0913, CTBP2 C60 (UniProt P56545) 0.394, DRG2 C223 (UniProt P55039) 0.32, KPNA2 C133 (UniProt P52292) 0.141, KIF11 C819 (UniProt P52732) 0.28, PGD C170 (UniProt P52209) 0.0438, COPB1 C888 (UniProt P53618) 0.0575, RARS C115 (UniProt P54136) 0.0596, UniProt P60891_C165 0.284, PLK1 C405 (UniProt P53350) 0.764, ALDH18A1 C88 (UniProt P54886) 0.22, HNRNPM C653 (UniProt P52272) 0.161

Reference: the supplement of paper PMC11006884
